Measured values from PubChem BioAssay AID1688 (National Center for Advancing Translational Sciences (NCATS), 2009).
About 2,400 (1.1%) of roughly 220,000 compounds were called active. Inconclusive results, whose numbers are uncertain, are shown with a selection of clear calls. Calls come from the whole dose curve; as a rule, active = well fitted inhibition curve with a large enough effect; inconclusive = small, poorly fitted or top-dose-only effect, or effect the other way; inactive = no such curve, though single readings can be large or run the other way. A potency beside an inconclusive call is a rough fit, not a confirmed value.

Assay: qHTS Multiplex Assay to Identify Dual Action Probes in a Cell Model of Huntington: Aggregate Formation (GFP); note: nearly all actives have a fitted effect of over 60% in size
Settings: PC12 HttQ103-GFP aggregates, Acumen cytometry, 40 h; activity change, negative = inhibition: at 46.1 µM (top of the series) unless noted
How it was run: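 Aggregate formation scored by laser-scanning cytometer (488 excitation, 500–530 emission) in lysed PC12 cells expressing Q103-GFP after 100 nM tebufenozide induction; library tested in dose series, with ATPLite reagent added in the multiplex.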
% is set by controls: 0 for no effect and ±100 for the full control effect; potency is the fitted concentration of half-maximal effect.

SMILES	Potency	activity change, negative = inhibition
COc1ccc(C(=O)CSc2nnc(Cn3cnc4ccccc43)o2)cc1	active: 10 µM	
Cc1cc(-c2nnc(-c3ccccc3)c(-c3ccccc3)n2)c(C)o1	inactive	
CC(C)Cn1c(N)c(C(=O)COC(=O)c2ccc([N+](=O)[O-])o2)c(=O)n(C)c1=O	inactive	
CCCCc1ccc(S(=O)(=O)NCCc2ccncc2)cc1	inconclusive: 17.8 µM [inhibitor, single point]	
O=C(/C=C/Nc1ccccc1O)c1ccco1	inconclusive: 3.55 µM [activator, partial curve]	
Cc1ccc(C(=O)NNC(=O)CCC(=O)Nc2cc(C)on2)cc1	inconclusive: 0.708 µM [inhibitor, single point]	
Nc1cc(-c2ccncc2)c[nH]c1=O	inconclusive: 0.501 µM [inhibitor, full curve, poor fit]	
COc1ccccc1NC(=O)Nc1cc(F)ccc1F	inconclusive: 14.1 µM [inhibitor, partial curve]	
O=C(O)CN(CC(=O)O)Cc1cc2c(-c3ccccc3C(=O)O)c3cc(CN(CC(=O)O)CC(=O)O)c(=O)cc-3oc2cc1O	active: 0.178 µM	
CC(C)c1ccc(NC(=O)CSc2n[nH]c(=O)n2-c2ccc3c(c2)OCCO3)cc1		inactive: 27.1% [at 9.22 µM]
Cc1ccc(C)c(NC(=S)NNC(=O)c2csc3c2CCCC3)c1	active: 25.1 µM	
O=C(COc1ccc(S(=O)(=O)N2CCCC2)cc1Cl)NCc1ccc2c(c1)OCO2	inactive	
Cc1ccc[n+](CC(=O)Nc2cc(C(F)(F)F)ccc2Cl)c1	inconclusive: 35.5 µM [activator, single point]	
O=C(O)Cn1cc2c(n1)CCCC2	inconclusive: 4.47 µM [inhibitor, single point]	
COc1ccc(C(=O)Nc2oc(-c3ccccc3)c(-c3ccccc3)c2C#N)cc1	inconclusive: 35.5 µM [inhibitor, single point]	
CCN(CCCNC(=O)COc1cc(=O)n(CC)c2ccccc12)Cc1ccccc1	inconclusive: 1.58 µM [activator, partial curve]	
Cc1ccc(F)cc1S(=O)(=O)NCc1ccc(N2CCN(C)CC2)cc1		inactive: 3.14% [at 9.22 µM]
Cc1ccc(SCc2cn3cccnc3n2)cc1	inactive	
CC1(C)Oc2ccc3ccc(=O)oc3c2-c2cn[nH]c21	inconclusive: 2 µM [activator, partial curve]	
COc1ccccc1-c1nnc2sc(COc3ccc(Cl)cc3)nn12	inconclusive: 25.1 µM [inhibitor, partial curve]	
CCOC(=O)c1c(C)[nH]c2c1cc(O)c1ccccc12	inactive	
O=C(Nc1nc(-c2cccnc2)cs1)c1ccc(S(=O)(=O)N2CCOCC2)cc1	inconclusive: 8.91 µM [inhibitor, partial curve]	
COc1ccc(/C=N/NC(=O)c2ccc3c(c2)OCCO3)cc1[N+](=O)[O-]	inconclusive: 35.5 µM [inhibitor, partial curve, poor fit]	

SMILES	Potency	activity change, negative = inhibition
c1ccc(-c2nnc3sc(Cc4cccs4)nn23)cc1	inactive	
C=CCc1c(C)[nH]c(=S)c(C#N)c1C	inactive	
Cc1c(C(=O)Nc2ccccc2)sc2nc(-c3ccccc3)cn12	inconclusive: 22.4 µM [inhibitor, single point]	
CSC(=S)NCc1cccnc1	inconclusive: 35.5 µM [inhibitor, single point]	
CCc1ccc(Nc2ccc(C(N)=O)cc2[N+](=O)[O-])cc1	inconclusive: 35.5 µM [inhibitor, single point]	
O=c1cc(CSc2nnc(-c3cccs3)n2Cc2ccccc2)nc2sc3ccccc3n12	inconclusive: 6.31 µM [inhibitor, full curve]	
CN(C)CC(CCC(CN(C)C)C(=O)c1ccccc1)C(=O)c1ccccc1 (centres undefined)	inconclusive: 5.62 µM [inhibitor, single point]	
O=C(c1ccco1)N1CCC(c2nc(-c3ccccc3Cl)no2)CC1	inconclusive: 35.5 µM [inhibitor, single point]	
Cc1ccc(/C=N/Nc2ccc3ccccc3n2)o1	active: 12.6 µM	
O=C(O)c1cccc(Oc2ccccc2[N+](=O)[O-])c1	inactive	
Cc1ccc(C2C3=C(CC(C)(C)CC3=O)N=C3c4ccccc4C(=O)C32)cc1 (centres undefined)	inconclusive: 35.5 µM [inhibitor, single point]	
C=CCc1cccc(/C=N/n2cnnc2)c1O	inactive	
O=C(NNc1ccccc1Cl)C(O)(c1cccc(C(F)(F)F)c1)c1cccc(C(F)(F)F)c1	inconclusive: 14.1 µM [inhibitor, single point]	
COc1ccc(C(=O)N[C@H](C(=O)N2CCN(c3ccccc3F)CC2)C(C)C)cc1	inconclusive: 0.562 µM [activator, full curve, poor fit]	
CCN(CC)CCNC(=O)c1ccc(NC(=O)/C=C/c2cc(OC)c(OC)c(OC)c2)cc1	inconclusive: 14.1 µM [activator, single point]	
CCN(CC(O)CON=C1c2ccccc2-c2ccccc21)S(=O)(=O)c1ccc(C)cc1 (centres undefined)	inconclusive: 25.1 µM [inhibitor, single point]	
O=C(Nc1ccc2c(c1)oc1ccccc12)c1ccc2c(c1)OCO2	inconclusive: 5.01 µM [activator, full curve]	
Nc1c(N2CCCCC2)c(=O)[nH]c(=O)n1-c1ccccc1	inactive	
Cc1cccc(C)c1N1CCN(C(=O)N2CCCCC2)CC1		inactive: 10.8% [at 9.22 µM]
O=C(N/N=C/c1c(Cl)[nH]c2ccccc12)c1sc2ccccc2c1Cl	inconclusive: 35.5 µM [inhibitor, single point]	
O=C(CSc1nnc(C2CC2)n1Cc1ccccc1)Nc1cccnc1Cl	inconclusive: 2.51 µM [activator, single point]	
COC(=O)c1ccc(C2C(C#N)=C(C)NC3=C2C(=O)CC(C)(C)C3)cc1 (centres undefined)	inconclusive: 22.4 µM [inhibitor, single point]	
COc1cccc(Nc2ncccc2C(=O)O)c1	inconclusive: 35.5 µM [inhibitor, single point]	

Among those listed so far, 4 have a nitro group on carbon.
SMILES	Potency	activity change, negative = inhibition
CC(C)Cn1c(N)c(C(=O)COC(=O)c2ccc([N+](=O)[O-])o2)c(=O)n(C)c1=O	inactive	
COc1ccc(/C=N/NC(=O)c2ccc3c(c2)OCCO3)cc1[N+](=O)[O-]	inconclusive: 35.5 µM [inhibitor, partial curve, poor fit]	
CCc1ccc(Nc2ccc(C(N)=O)cc2[N+](=O)[O-])cc1	inconclusive: 35.5 µM [inhibitor, single point]	
O=C(O)c1cccc(Oc2ccccc2[N+](=O)[O-])c1	inactive	

Two compounds drawn at random from the list so far:
SMILES	Potency	activity change, negative = inhibition
C=CCc1cccc(/C=N/n2cnnc2)c1O	inactive	
CSC(=S)NCc1cccnc1	inconclusive: 35.5 µM [inhibitor, single point]	

The listing continues.

SMILES	Potency	activity change, negative = inhibition
CCOc1ccc2c(c1)C(=NNC(=O)c1ccncc1)c1cc(OCC)ccc1-2	inconclusive: 11.2 µM [inhibitor, partial curve]	
Nc1cc(=O)[nH]c(SCC(=O)Nc2cc(Cl)cc(Cl)c2)n1	inconclusive: 35.5 µM [activator, partial curve]	
CCn1cc(C(=O)NCCCN2CCCC(C)C2)c(=O)c2cc(S(=O)(=O)N3CCc4ccccc4C3)ccc21 (centres undefined)	inconclusive: 31.6 µM [inhibitor, single point]	
O=c1oc2cc(Br)ccc2n1CSC1=NCCS1	inconclusive: 3.16 µM [activator, single point]	
C=CCNC(=S)N/N=C/c1ccc(-c2ccc(Br)cc2)o1	inconclusive: 2.51 µM [activator, partial curve, poor fit]	
Cc1ccc(S(=O)(=O)N(CC(=O)NN=C2CCN(C)CC2)c2ccc(F)cc2)cc1	inconclusive: 3.55 µM [activator, single point]	
Cc1ccc(C(=O)N2CCN(c3ccc(NC(=O)c4ccc(Br)o4)cc3)CC2)cc1	inactive	
OC(CN1CCN(Cc2ccccc2)CC1)c1ccc(F)cc1 (centres undefined)	inconclusive: 14.1 µM [inhibitor, single point]	
CCOC(=O)CSc1nnc(CNc2nc(-c3ccccc3)cs2)n1C	inconclusive: 35.5 µM [inhibitor, single point]	
O=C1c2ccccc2C(=O)N1CCCc1nc2ccccc2c(=O)n1Cc1ccco1	inconclusive: 17.8 µM [inhibitor, single point]	
CCN(CC)C(=O)c1sc2nc(Cc3ccccc3)[nH]c(=O)c2c1C		inactive: 4.21% [at 9.22 µM]
Cc1cc2n(n1)C(c1ccccc1Cl)Nc1ccccc1-2 (centres undefined)	inconclusive: 11.2 µM [activator, partial curve]	
COc1cc(/C=C(\C#N)c2ccccn2)ccc1OCc1ccc(Cl)cc1	inconclusive: 5.62 µM [inhibitor, single point]	
O=C1/C(=C/c2ccncc2)SC(=S)N1C1CCS(=O)(=O)C1 (centres undefined)	inconclusive: 22.4 µM [inhibitor, single point]	
Cc1ccc(C)c(S(=O)(=O)N2CCN(CC(=O)Nc3ccc([N+](=O)[O-])cc3)CC2)c1	inconclusive: 12.6 µM [inhibitor, single point]	
Cc1ccccc1NC(=O)C1c2ccccc2Oc2ccccc21	inconclusive: 0.501 µM [activator, full curve, poor fit]	
O=C(Nc1ccc(N2CCOCC2)cc1N1CCOCC1)c1cccs1	inactive	
O=C(Nc1ccccc1)Nc1ccc(F)c([N+](=O)[O-])c1	inconclusive: 3.55 µM [inhibitor, partial curve]	
CS(=O)(=O)c1ccc(C(=O)OCc2nnc(-c3ccc(Cl)cc3)o2)cc1[N+](=O)[O-]	inconclusive: 35.5 µM [inhibitor, single point]	
COC(=O)c1cccc(N(C(=O)c2cnccn2)C(C(=O)NCc2ccccc2)c2ccco2)c1 (centres undefined)	inactive	
COc1cc(/C=N/NS(=O)(=O)c2ccc(C(C)(C)C)cc2)cc([N+](=O)[O-])c1O		inactive: -3.31% [at 9.22 µM]
Cc1ccccc1CNCc1cccnc1	inconclusive: 0.562 µM [inhibitor, partial curve, poor fit]	
O=C(N/N=C/c1ccc([N+](=O)[O-])o1)c1cn(-c2ccccc2)nc1-c1ccccc1	inconclusive: 31.6 µM [activator, single point]	
